Paper PMC3991680
No constants are given. Whether binding was seen depends on the method and setting. Binding seen in cells or lysates may run through a third protein. Some entries that bind do so weakly or less than the wild type. Tags and fused reporters may be left off the sequences shown.

Amino acid sequences for entries named in this document (tags omitted). Residues count along the entry.
UniProt Q4ZJM7, residues 24-482: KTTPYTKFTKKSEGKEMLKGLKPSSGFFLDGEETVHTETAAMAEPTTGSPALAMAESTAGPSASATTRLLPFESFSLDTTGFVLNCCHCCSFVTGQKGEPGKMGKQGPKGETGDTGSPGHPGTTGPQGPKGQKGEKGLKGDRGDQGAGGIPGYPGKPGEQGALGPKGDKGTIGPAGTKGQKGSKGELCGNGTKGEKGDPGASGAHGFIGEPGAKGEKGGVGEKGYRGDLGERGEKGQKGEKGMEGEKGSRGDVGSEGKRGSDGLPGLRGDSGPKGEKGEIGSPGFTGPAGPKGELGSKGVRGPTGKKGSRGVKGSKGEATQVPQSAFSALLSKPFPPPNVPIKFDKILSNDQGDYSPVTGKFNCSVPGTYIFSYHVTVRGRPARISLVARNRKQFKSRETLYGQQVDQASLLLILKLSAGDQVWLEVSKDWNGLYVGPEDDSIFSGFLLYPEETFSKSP

Target: T1, recombinant histidine tagged mouse Otoconin-90 (mouse) (UniProt Q9Z0L3)
T1 sequence: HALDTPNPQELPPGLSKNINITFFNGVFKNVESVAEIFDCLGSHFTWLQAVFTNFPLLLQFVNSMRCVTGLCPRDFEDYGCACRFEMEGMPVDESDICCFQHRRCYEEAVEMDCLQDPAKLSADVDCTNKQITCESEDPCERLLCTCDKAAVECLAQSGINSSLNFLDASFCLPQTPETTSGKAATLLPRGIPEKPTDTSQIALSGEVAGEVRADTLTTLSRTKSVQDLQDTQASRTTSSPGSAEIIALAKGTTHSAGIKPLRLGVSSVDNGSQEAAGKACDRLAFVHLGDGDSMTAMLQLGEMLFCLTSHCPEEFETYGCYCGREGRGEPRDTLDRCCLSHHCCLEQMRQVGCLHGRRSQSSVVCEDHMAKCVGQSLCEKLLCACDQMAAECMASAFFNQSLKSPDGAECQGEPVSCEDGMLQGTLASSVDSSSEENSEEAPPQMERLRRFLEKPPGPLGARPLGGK
Experiment: pull-down; His-tag pull down; preliminary, data not shown

“recombinant mouse Otolin-1-Flag (from UniProt Q4ZJM7 24-482)” was tested, and the binding was “binds”.
